Test results from publication PMC11655532.
Results are given in words; binding and its absence hold for the method and conditions named. Binding seen in cells or lysates may run through a third protein. Some results given as binding are weak or reduced against the parent protein; the word gives no strength.

Sequences of proteins named here, by UniProt entry; tags and fusion partners are left off.
UniProt Q9UBL6: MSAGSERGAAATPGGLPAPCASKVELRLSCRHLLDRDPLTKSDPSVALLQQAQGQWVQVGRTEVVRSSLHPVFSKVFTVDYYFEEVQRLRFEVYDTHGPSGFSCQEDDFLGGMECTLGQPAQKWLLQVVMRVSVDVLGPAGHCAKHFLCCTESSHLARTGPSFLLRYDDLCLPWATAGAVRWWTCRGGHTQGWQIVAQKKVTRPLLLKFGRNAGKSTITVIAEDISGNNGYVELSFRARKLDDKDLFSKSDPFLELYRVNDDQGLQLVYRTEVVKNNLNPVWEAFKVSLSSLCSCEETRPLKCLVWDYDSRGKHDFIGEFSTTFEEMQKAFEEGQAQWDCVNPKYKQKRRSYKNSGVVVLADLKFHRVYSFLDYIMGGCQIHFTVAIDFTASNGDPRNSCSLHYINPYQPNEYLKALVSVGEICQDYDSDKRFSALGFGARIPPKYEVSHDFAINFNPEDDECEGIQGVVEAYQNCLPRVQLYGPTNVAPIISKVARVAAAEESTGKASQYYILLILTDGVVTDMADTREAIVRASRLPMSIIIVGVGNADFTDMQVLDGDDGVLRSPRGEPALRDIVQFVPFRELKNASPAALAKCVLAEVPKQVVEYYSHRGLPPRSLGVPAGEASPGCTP

Columns and labels:
[1] = target: CPNE7 (copine7) (human) (UniProt Q9UBL6); assay: co-IP; 293T cell lysate (RIPA buffer with PMSF), 2 ug antibody overnight at 4°C, Protein A/G beads, Western blot
[2] = target: CPNE7 (copine7) (human) (UniProt Q9UBL6); assay: co-IP; cells not given; with or without gramicidin at 8 nM; Western blot
[3] = target: CPNE7 (copine7) (human) (UniProt Q9UBL6); assay: co-IP; HCT116 cell lysate (RIPA buffer with PMSF), 2 ug antibody overnight at 4°C, Protein A/G beads, Western blot

Measured: binding

B1: NONO (p54/nrb) (protein, UniProt Q15233 1-471)
chain: MQSNKTFNLEKQNHTPRKHHQHHHQQQHHQQQQQQPPPPPIPANGQQASSQNEGLTIDLKNFRKPGEKTFTQRSRLFVGNLPPDITEEEMRKLFEKYGKAGEVFIHKDKGFGFIRLETRTLAEIAKVELDNMPLRGKQLRVRFACHSASLTVRNLPQYVSNELLEEAFSVFGQVERAVVIVDDRGRPSGKGIVEFSGKPAARKALDRCSEGSFLLTTFPRPVTVEPMDQLDDEEGLPEKLVIKNQQFHKEREQPPRFAQPGSFEYEYAMRWKALIEMEKQQQDQVDRNIKEAREKLEMEMEAARHEHQVMLMRQDLMRRQEELRRMEELHNQEVQKRKQLELRQEEERRRREEEMRRQQEEMMRRQQEGFKGTFPDAREQEIRMGQMAMGGAMGINNRGAMPPAPVPAGTPAPPGPATMMPDGTLGLTPPTTERFGQAATMEGIGAIGGTPPAFNRAAPGAEFAPNKRRRY
binds: all assays above
